Assay results from the supplement of paper PMC6411743.
± gives the standard deviation of the averaged measurements. The entries are a selection whose mix differs from that of the whole data set.

Sequences of proteins named here, by UniProt entry; tags and fusion partners are left off. A change or cut given only in a name is not applied to a line headed by its entry.
UniProt P10244: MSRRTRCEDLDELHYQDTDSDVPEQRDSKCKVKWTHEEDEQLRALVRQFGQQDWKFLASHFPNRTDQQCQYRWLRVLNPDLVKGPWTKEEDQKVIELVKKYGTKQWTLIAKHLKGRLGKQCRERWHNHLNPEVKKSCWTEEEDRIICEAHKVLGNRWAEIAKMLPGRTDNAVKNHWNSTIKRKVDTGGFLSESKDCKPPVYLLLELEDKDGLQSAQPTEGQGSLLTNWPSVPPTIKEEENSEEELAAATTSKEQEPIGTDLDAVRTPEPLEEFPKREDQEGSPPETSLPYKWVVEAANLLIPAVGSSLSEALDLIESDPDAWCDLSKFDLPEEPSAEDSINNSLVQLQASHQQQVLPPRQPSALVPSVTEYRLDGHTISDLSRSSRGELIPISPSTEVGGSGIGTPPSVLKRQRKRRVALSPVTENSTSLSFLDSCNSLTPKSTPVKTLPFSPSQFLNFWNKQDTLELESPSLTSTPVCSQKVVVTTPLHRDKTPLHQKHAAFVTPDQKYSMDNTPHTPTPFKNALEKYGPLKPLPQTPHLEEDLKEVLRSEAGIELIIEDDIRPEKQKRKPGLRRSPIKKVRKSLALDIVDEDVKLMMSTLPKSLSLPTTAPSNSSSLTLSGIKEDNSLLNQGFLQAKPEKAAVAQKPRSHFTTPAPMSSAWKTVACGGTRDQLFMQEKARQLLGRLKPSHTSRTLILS
UniProt P00390: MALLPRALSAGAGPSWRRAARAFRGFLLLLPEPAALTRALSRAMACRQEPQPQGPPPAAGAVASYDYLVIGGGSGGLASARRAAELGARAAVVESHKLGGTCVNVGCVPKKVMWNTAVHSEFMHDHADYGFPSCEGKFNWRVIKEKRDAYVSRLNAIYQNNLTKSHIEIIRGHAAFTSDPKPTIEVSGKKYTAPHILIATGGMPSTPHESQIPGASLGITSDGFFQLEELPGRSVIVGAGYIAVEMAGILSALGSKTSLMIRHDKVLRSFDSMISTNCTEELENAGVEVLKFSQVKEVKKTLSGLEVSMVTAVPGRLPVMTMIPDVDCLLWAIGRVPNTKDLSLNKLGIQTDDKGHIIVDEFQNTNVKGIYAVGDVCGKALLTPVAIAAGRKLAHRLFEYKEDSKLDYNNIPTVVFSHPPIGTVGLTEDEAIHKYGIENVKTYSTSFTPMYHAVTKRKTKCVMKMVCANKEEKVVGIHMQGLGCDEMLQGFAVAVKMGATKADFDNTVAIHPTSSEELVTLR
UniProt P11441: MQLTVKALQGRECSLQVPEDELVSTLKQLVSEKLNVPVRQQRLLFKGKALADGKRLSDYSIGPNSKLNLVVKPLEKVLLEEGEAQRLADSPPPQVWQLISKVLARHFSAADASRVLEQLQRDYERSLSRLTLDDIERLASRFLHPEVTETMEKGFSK
UniProt P16220: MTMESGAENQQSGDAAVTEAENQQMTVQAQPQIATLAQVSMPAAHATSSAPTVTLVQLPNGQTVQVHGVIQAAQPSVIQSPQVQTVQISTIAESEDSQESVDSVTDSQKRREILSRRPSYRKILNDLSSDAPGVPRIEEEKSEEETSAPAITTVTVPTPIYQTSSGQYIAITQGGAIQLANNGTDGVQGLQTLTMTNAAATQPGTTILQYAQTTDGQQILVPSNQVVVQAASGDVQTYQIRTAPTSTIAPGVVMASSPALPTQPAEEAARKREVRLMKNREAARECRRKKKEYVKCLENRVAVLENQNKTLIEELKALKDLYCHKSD
UniProt P06132: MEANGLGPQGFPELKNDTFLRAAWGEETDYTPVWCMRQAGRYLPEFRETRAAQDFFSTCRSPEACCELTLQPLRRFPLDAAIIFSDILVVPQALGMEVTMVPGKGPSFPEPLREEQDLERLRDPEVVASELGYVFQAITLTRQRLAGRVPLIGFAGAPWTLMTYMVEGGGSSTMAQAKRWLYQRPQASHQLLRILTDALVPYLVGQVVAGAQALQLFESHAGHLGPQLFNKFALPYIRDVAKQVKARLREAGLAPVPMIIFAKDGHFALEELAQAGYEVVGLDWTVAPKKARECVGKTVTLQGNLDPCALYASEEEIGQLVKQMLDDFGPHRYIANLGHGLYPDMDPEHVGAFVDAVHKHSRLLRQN
UniProt P06753, whole entry: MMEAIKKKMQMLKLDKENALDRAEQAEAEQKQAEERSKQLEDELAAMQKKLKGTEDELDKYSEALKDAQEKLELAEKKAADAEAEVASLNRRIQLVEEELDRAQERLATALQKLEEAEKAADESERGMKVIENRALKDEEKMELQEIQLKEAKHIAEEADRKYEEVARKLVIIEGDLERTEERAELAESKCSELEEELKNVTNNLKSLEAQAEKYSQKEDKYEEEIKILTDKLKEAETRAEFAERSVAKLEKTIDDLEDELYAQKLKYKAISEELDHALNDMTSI
UniProt P09651: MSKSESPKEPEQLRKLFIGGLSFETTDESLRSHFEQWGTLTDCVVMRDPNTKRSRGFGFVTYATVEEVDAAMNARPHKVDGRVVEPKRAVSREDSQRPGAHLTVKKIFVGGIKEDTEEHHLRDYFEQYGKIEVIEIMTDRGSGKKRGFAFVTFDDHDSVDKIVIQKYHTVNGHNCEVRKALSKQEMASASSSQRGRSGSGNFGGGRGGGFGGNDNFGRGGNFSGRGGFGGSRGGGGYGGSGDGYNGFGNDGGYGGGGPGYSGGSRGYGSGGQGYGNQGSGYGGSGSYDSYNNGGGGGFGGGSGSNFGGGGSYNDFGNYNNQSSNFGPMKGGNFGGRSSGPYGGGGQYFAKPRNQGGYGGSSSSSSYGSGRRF
UniProt O95873: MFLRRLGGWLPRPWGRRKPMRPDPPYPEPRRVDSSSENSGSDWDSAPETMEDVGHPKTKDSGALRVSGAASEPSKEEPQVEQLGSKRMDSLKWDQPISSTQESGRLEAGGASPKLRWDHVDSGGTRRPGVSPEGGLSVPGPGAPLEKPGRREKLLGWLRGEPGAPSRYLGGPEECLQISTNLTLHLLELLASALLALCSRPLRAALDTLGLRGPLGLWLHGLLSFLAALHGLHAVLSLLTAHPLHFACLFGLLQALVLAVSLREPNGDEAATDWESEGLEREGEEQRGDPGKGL
UniProt P04035: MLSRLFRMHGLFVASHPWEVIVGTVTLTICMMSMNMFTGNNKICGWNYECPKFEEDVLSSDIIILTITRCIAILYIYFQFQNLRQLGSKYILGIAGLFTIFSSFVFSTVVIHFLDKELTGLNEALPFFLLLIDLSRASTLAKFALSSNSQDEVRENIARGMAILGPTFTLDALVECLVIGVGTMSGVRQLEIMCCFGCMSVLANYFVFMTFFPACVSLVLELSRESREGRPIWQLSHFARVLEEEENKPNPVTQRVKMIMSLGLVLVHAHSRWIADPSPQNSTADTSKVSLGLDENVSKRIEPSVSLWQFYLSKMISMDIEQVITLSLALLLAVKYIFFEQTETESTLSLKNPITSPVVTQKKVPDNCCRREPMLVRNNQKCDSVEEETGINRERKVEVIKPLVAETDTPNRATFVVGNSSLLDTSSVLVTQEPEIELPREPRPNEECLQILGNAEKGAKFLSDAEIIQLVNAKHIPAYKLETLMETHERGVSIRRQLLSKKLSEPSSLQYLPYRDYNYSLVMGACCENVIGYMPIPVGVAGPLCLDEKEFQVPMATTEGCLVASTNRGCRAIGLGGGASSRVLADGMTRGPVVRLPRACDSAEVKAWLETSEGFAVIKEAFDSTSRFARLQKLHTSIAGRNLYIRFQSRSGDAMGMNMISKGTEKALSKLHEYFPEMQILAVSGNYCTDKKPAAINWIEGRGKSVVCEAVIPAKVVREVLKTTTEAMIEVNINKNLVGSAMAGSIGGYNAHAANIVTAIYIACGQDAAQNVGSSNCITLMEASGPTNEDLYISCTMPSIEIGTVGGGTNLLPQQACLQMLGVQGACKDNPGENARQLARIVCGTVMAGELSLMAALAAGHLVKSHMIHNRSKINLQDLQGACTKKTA
UniProt O95865: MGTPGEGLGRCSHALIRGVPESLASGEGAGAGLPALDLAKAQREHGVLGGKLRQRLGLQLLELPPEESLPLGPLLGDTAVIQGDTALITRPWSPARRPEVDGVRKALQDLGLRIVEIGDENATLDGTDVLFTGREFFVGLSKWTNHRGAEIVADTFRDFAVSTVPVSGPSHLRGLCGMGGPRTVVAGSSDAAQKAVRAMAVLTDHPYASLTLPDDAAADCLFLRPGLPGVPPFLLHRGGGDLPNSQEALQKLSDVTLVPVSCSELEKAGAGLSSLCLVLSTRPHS
UniProt P11279: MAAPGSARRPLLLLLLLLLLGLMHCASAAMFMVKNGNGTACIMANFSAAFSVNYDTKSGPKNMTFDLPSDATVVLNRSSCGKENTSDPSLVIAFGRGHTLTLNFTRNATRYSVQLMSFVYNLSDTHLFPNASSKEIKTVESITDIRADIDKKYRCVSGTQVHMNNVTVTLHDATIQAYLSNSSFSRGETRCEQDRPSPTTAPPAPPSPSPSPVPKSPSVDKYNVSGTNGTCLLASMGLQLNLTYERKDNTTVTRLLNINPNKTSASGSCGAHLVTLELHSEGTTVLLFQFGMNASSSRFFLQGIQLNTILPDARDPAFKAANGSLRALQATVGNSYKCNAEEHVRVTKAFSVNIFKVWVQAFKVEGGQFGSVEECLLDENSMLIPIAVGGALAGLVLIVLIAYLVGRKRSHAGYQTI
UniProt P09104, whole entry: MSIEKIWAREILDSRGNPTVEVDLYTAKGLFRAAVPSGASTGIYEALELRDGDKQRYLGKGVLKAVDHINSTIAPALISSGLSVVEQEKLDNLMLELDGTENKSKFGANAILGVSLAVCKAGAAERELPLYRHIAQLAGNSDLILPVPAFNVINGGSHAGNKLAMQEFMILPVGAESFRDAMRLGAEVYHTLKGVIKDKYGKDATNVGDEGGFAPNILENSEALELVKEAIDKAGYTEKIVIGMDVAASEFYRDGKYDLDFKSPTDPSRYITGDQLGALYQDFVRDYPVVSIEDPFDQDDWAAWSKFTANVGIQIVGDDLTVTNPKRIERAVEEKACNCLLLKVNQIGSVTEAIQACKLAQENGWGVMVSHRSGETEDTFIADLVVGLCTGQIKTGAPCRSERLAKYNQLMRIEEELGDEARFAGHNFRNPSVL
UniProt P12955: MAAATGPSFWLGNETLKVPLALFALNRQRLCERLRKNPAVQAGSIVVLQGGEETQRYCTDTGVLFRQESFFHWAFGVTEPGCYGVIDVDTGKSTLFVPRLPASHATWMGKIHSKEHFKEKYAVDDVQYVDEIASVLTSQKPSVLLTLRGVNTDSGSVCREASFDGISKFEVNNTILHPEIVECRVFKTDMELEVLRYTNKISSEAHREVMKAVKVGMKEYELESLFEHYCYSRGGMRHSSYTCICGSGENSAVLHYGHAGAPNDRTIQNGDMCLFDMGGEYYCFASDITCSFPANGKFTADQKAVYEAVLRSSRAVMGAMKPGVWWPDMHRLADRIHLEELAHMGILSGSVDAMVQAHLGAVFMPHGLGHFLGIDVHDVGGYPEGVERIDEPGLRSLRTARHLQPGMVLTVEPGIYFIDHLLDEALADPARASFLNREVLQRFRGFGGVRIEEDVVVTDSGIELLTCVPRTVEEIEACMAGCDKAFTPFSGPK
UniProt P13929, whole entry: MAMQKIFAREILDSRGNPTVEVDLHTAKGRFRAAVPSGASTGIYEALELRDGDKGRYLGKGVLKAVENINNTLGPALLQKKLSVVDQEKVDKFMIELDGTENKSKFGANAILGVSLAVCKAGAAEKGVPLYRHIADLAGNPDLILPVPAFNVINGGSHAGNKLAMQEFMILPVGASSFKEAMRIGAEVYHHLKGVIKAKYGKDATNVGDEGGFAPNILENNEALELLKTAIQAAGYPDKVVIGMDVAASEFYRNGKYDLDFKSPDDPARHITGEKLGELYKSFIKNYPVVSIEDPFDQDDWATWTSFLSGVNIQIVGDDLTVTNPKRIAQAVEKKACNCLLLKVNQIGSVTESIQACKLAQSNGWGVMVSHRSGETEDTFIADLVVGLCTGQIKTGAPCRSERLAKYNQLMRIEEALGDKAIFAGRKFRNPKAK

Compound: Nc1ncnc2c1ncn2[C@@H]1O[C@H](COP(=O)(O)OP(=O)(O)OP(=O)(O)O)[C@@H](O)[C@H]1O [adenosine triphosphate]
Test: NP40-soluble protein abundance relative to vehicle (solubility fold change) (ratio); higher = more soluble protein in presence of ATP
In short: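 Jurkat crude lysate prepared with a Dounce homogeniser was treated at eight concentrations spanning 0.1 to 10 mM, 10 min at room temperature then 3 min at 37 °C. Solubilisation with 0.8% NP40 and benzonase and ultracentrifugation preceded TMT labelling of the supernatant for LC-MS/MS. Fold change against the detergent-processed vehicle was determined per replicate from vsn-normalised intensities, across three independent experiments.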

Target	NP40-soluble protein abundance (concentration: 1mM)	NP40-soluble protein abundance (concentration: 2mM)	NP40-soluble protein abundance (concentration: 4mM)	NP40-soluble protein abundance (concentration: 6mM)	NP40-soluble protein abundance (concentration: 8mM)	NP40-soluble protein abundance (concentration: 10mM)
ZBED1 (UniProt O96006)	0.99 ± 0.061	0.992 ± 0.042	0.957 ± 0.027	0.971 ± 0.024	0.9691 ± 0.0026	0.987 ± 0.038
UniProt P10244 and related entries	1.05 ± 0.12	1.12 ± 0.12	1.06 ± 0.083	1.25 ± 0.059	1.1 ± 0.051	1.17 ± 0.07
UniProt P15529-2|P15529-3|P15529-4|P15529-5|P15529-6|P15529-7|P15529-16	0.929 ± 0.056	0.929 ± 0.059	0.938 ± 0.04	0.964 ± 0.03	0.9178 ± 0.0073	0.902 ± 0.033
UniProt P00390 and related entries	1 ± 0.062	0.97 ± 0.072	0.935 ± 0.041	0.93 ± 0.1	0.987 ± 0.046	0.965 ± 0.061
UBL4A (UniProt P11441)	0.923 ± 0.072	0.918 ± 0.021	0.914 ± 0.044	0.914 ± 0.11	0.904 ± 0.038	0.841 ± 0.058
CREB1 (UniProt P16220)	0.955 ± 0.062	0.944 ± 0.041	0.888 ± 0.024	0.936 ± 0.029	0.883 ± 0.033	0.86 ± 0.019
UROD (UniProt P06132)	0.9889 ± 0.0093	0.9953 ± 0.0074	0.98 ± 0.06	0.996 ± 0.043	0.988 ± 0.082	0.961 ± 0.05
P0C0S8 and related entries (UniProt Q99878+Q96KK5+Q93077+Q6FI13+P0C0S8)	0.824 ± 0.2	0.683 ± 0.18	0.723 ± 0.14	0.686 ± 0.11	0.464 ± 0.067	1.03 ± 0.41
UniProt P06753-2|P06753-3|P06753-5|P06753-6|J3KN67	1.06 ± 0.1	1.03 ± 0.13	1.13 ± 0.068	1.19 ± 0.058	1.33 ± 0.28	0.924 ± 0.41
UniProt P09651 and related entries	1.06 ± 0.14	1.09 ± 0.12	1.07 ± 0.12	1.22 ± 0.17	1.1 ± 0.1	1.17 ± 0.075
C6orf47 (UniProt O95873)	0.909 ± 0.026	0.876 ± 0.088	0.912 ± 0.029	0.918 ± 0.066	0.891 ± 0.021	0.92 ± 0.078
UniProt P04035 and related entries	0.98 ± 0.04	1 ± 0.067	1.04 ± 0.036	0.992 ± 0.12	1.02 ± 0.11	1.08 ± 0.075
DDAH2 (UniProt O95865)	0.973 ± 0.041	0.961 ± 0.02	0.956 ± 0.019	0.997 ± 0.039	0.947 ± 0.034	0.926 ± 0.033
LAMP1 (UniProt P11279)	0.941 ± 0.034	0.917 ± 0.023	0.954 ± 0.018	0.967 ± 0.045	0.913 ± 0.064	0.907 ± 0.021
ENO2 (UniProt P09104)	1.02 ± 0.041	0.994 ± 0.061	0.971 ± 0.049	0.972 ± 0.092	0.979 ± 0.058	0.96 ± 0.074
PEPD (UniProt P12955)	1.04 ± 0.11	1.02 ± 0.083	0.999 ± 0.066	0.955 ± 0.1	1 ± 0.064	0.963 ± 0.047
UniProt P13929 and related entries	0.999 ± 0.053	0.98 ± 0.062	0.948 ± 0.053	0.985 ± 0.072	0.979 ± 0.048	0.98 ± 0.045

Taken from above.
Under NP40-soluble protein abundance (concentration: 10mM), UniProt P09651 and related entries is entered as 1.17 ± 0.075
Under NP40-soluble protein abundance (concentration: 8mM), UniProt P13929 and related entries is entered as 0.979 ± 0.048
